PubChem BioAssay AID1159578, Peter MacCallum Cancer Centre, 2015
Assay: 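Genome-wide hunt for genes controlling movement of lymphatic endothelial cells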 (primary screen). Cell system: human lymphatic endothelial cells. Reagents: siRNA pool against human genes, 40 nM. Time to read-out: 48 h after transfection. Read-out: 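Cells stained with dye and imaged after a scratch; covered wound area and nuclei counted, duplicates averaged, migration set against mock wells and turned into a robust z-score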. Direction: migration robust z-score: higher = faster migration into the scratch; nuclei per well: higher = more cells in the well. Call rule: 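Migration changed when robust z exceeds 2 or falls below -2 and mean nuclei number is at least 3300; otherwise not called changed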. Meaning of the calls: active = migration changed; inactive = no migration change, or too few cells.
Here is a random part of about 18,000 reagents tested. Over the whole deposit, about 1,030 (5.7%) got an active call. 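Inactive calls also include pools with fewer than 3300 nuclei, whose migration was not assessed.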 The raw values are shown without normalisation. Entries without a mark were called inactive. Further read-outs or replicates are left out here.

target gene	migration robust z-score	nuclei per well, duplicate mean
RHCG	0.06	6300
IFITM5	-1.54	6595
CLK4	-1.25	5932
ARVCF	0.52	5964
PPP6R1	-3.56 (active)	4812
CLK2	0.08	4610
SIRT2	0.01	6314
CYP4Z1	1.74	5578
SLC8A2	-0.36	5948
ERAL1	-0.52	5201
PIAS2	0.44	5809
ERICH3	-0.96	6616
SELENOF	0.07	6128
ABLIM1	-2.46 (active)	4560
MMP9	1.14	5242

Looked up above:
Under “migration robust z-score”, ARVCF shows 0.52
Under “nuclei per well, duplicate mean”, CLK4 shows 5932

Next results follow.
target gene	migration robust z-score	nuclei per well, duplicate mean
DCT	1.42	6526
HIP1	-1.31	2910
FIBP	0.88	6672
MYOD1	0.26	6943
SPMIP2	-0.14	5366
TNFSF12	-0.19	7052
RPUSD3	0.94	5040
HUNK	-1.32	4140
